Columns and labels:
[1] = Triboelectrification (JIS L 1094) of fabric surface-treated as in Example 2 (cerium ammonium nitrate catalyst)
[2] = Triboelectrification of silk surface-treated with E-beam as in Example 4; conditions: fiber Silk
[3] = Triboelectrification of nylon 66 surface-treated with E-beam as in Example 3
[4] = Triboelectrification of nylon 66 surface-treated with E-beam as in Example 4; conditions: fiber Nylon
[5] = abrasive cloth cotton, warp thread, weight ratio 50%
[6] = abrasive cloth cotton, weft, weight ratio 50%
[7] = abrasive cloth wool, warp thread, weight ratio 50%
[8] = abrasive cloth wool, weft, weight ratio 50%
[9] = abrasive cloth cotton, warp thread
[10] = abrasive cloth wool, warp thread

## C=CC[N+](CC)(CC)CC.[Cl-] [ACTEA]
[1]; [5]
  Triboelectrification: 10 V
[1]; [6]
  Triboelectrification: 10 V
[1]; [7]
  Triboelectrification: 10 V
[1]; [8]
  Triboelectrification: 10 V

## C=C(C)C(=O)OCC[N+](C)(C)CC.[Br-] [E2M]
[2]; [9]
  Triboelectrification: 10 or lower V
[2]; abrasive cloth cotton, weft
  Triboelectrification: 10 or lower V
[2]; [10]
  Triboelectrification: 10 or lower V
[2]; abrasive cloth wool, weft
  Triboelectrification: 10 or lower V
[3]; abrasive cloth cotton, warp thread, time 20 min
  Triboelectrification: 6160 V
[3]; abrasive cloth cotton, warp thread, time 40 min
  Triboelectrification: 8750 V
[3]; abrasive cloth cotton, warp thread, time 1 hr
  Triboelectrification: 3410 V
[3]; abrasive cloth cotton, warp thread, time 2 hr
  Triboelectrification: 2780 V
[3]; abrasive cloth cotton, warp thread, time 4 hr
  Triboelectrification: 1960 V
[3]; abrasive cloth cotton, weft, time 20 min
  Triboelectrification: 4510 V
[3]; abrasive cloth cotton, weft, time 40 min
  Triboelectrification: 8780 V
[3]; abrasive cloth cotton, weft, time 1 hr
  Triboelectrification: 4910 V
[3]; abrasive cloth cotton, weft, time 2 hr
  Triboelectrification: 6050 V
[3]; abrasive cloth cotton, weft, time 4 hr
  Triboelectrification: 4640 V
[3]; abrasive cloth wool, warp thread, time 20 min
  Triboelectrification: 8400 V
[3]; abrasive cloth wool, warp thread, time 40 min
  Triboelectrification: 7260 V
[3]; abrasive cloth wool, warp thread, time 1 hr
  Triboelectrification: 9930 V
[3]; abrasive cloth wool, warp thread, time 2 hr
  Triboelectrification: 7860 V
[3]; abrasive cloth wool, warp thread, time 4 hr
  Triboelectrification: 3860 V
[3]; abrasive cloth wool, weft, time 20 min
  Triboelectrification: 8680 V
[3]; abrasive cloth wool, weft, time 40 min
  Triboelectrification: 5480 V
[3]; abrasive cloth wool, weft, time 1 hr
  Triboelectrification: 11620 V
[3]; abrasive cloth wool, weft, time 2 hr
  Triboelectrification: 4000 V
[3]; abrasive cloth wool, weft, time 4 hr
  Triboelectrification: 2690 V
[1]; abrasive cloth cotton, warp thread, 50%, time 1 minute
  Triboelectrification: 80 V
[1]; abrasive cloth cotton, warp thread, 50%, time 5 minutes
  Triboelectrification: 80 V
[1]; abrasive cloth cotton, warp thread, 50%, time 10 minutes
  Triboelectrification: 130 V
[1]; abrasive cloth cotton, warp thread, 50%, time 30 minutes
  Triboelectrification: 130 V
[1]; abrasive cloth cotton, warp thread, 50%, time 60 minutes
  Triboelectrification: 120 V
[1]; [5]
  Triboelectrification: 80 V
[1]; abrasive cloth cotton, weft, 50%, time 1 minute
  Triboelectrification: 70 V
[1]; abrasive cloth cotton, weft, 50%, time 5 minutes
  Triboelectrification: 20 V
[1]; abrasive cloth cotton, weft, 50%, time 10 minutes
  Triboelectrification: 70 V
[1]; abrasive cloth cotton, weft, 50%, time 30 minutes
  Triboelectrification: 90 V
[1]; abrasive cloth cotton, weft, 50%, time 60 minutes
  Triboelectrification: 60 V
[1]; [6]
  Triboelectrification: 70 V
[1]; abrasive cloth wool, warp thread, 50%, time 1 minute
  Triboelectrification: 10 V
[1]; abrasive cloth wool, warp thread, 50%, time 5 minutes
  Triboelectrification: 10 or lower V
[1]; abrasive cloth wool, warp thread, 50%, time 10 minutes
  Triboelectrification: 60 V
[1]; abrasive cloth wool, warp thread, 50%, time 30 minutes
  Triboelectrification: 150 V
[1]; abrasive cloth wool, warp thread, 50%, time 60 minutes
  Triboelectrification: 130 V
[1]; [7]
  Triboelectrification: 10 V
[1]; abrasive cloth wool, weft, 50%, time 1 minute
  Triboelectrification: 10 or lower V
[1]; abrasive cloth wool, weft, 50%, time 5 minutes
  Triboelectrification: 10 or lower V
[1]; abrasive cloth wool, weft, 50%, time 10 minutes
  Triboelectrification: 10 or lower V
[1]; abrasive cloth wool, weft, 50%, time 30 minutes
  Triboelectrification: 70 V
[1]; abrasive cloth wool, weft, 50%, time 60 minutes
  Triboelectrification: 110 V
[1]; [8]
  Triboelectrification: 10 or lower V
[4]; [9]
  Triboelectrification: 10 or lower V
[4]; abrasive cloth cotton, weft
  Triboelectrification: 10 or lower V
[4]; [10]
  Triboelectrification: 10 or lower V
[4]; abrasive cloth wool, weft
  Triboelectrification: 10 or lower V

## C=CC[N+](CC)(CC)CC.[Br-] [ABTEA]
[1]; abrasive cloth cotton, warp thread, weight ratio 2%
  Triboelectrification: 3420 V
[1]; abrasive cloth cotton, warp thread, weight ratio 5%
  Triboelectrification: 2090 V
[1]; abrasive cloth cotton, warp thread, weight ratio 10%
  Triboelectrification: 1030 V
[1]; abrasive cloth cotton, warp thread, weight ratio 25%
  Triboelectrification: 30 V
[1]; [5]
  Triboelectrification: 10 V
[1]; abrasive cloth cotton, weft, weight ratio 2%
  Triboelectrification: 3380 V
[1]; abrasive cloth cotton, weft, weight ratio 5%
  Triboelectrification: 3200 V
[1]; abrasive cloth cotton, weft, weight ratio 10%
  Triboelectrification: 1180 V
[1]; abrasive cloth cotton, weft, weight ratio 25%
  Triboelectrification: 50 V
[1]; [6]
  Triboelectrification: 10 V
[1]; abrasive cloth wool, warp thread, weight ratio 2%
  Triboelectrification: 1620 V
[1]; abrasive cloth wool, warp thread, weight ratio 5%
  Triboelectrification: 1220 V
[1]; abrasive cloth wool, warp thread, weight ratio 10%
  Triboelectrification: 160 V
[1]; abrasive cloth wool, warp thread, weight ratio 25%
  Triboelectrification: 10 V
[1]; [7]
  Triboelectrification: 10 V
[1]; abrasive cloth wool, weft, weight ratio 2%
  Triboelectrification: 1860 V
[1]; abrasive cloth wool, weft, weight ratio 5%
  Triboelectrification: 1750 V
[1]; abrasive cloth wool, weft, weight ratio 10%
  Triboelectrification: 390 V
[1]; abrasive cloth wool, weft, weight ratio 25%
  Triboelectrification: 20 V
[1]; [8]
  Triboelectrification: 0 V

Source: patent publication US9029602B2, “Anti-microbial and anti-static surface treatment agent with quaternary ammonium salt as active ingredient and method for preventing static electricity in polymer fibers using same” (Industry-Academic Cooperation Foundation, Yeungnam …, priority 2010, dated 2015)
